This passage reports binding results from patent US20210214459A1.

Protein sequences, listed by entry. Tags and fused reporters are not part of them. Residues count along the entry.
UniProt P21589, residues 27-549: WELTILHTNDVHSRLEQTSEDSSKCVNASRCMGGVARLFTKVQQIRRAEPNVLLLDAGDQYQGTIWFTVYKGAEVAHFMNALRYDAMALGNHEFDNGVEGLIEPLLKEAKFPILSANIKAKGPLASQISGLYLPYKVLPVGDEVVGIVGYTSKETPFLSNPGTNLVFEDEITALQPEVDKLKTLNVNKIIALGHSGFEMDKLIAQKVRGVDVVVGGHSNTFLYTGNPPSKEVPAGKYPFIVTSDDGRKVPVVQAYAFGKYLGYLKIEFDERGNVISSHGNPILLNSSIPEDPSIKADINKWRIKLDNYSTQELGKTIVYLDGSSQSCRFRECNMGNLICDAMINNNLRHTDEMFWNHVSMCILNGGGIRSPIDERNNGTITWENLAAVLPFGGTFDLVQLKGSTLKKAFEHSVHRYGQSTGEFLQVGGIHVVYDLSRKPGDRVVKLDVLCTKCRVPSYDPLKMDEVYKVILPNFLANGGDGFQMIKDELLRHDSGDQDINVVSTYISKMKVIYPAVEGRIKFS

To fix the notation:
B1: 918.C (antibody, V domains shown)
VH: QVQLQESGPGLVKPSETLSLTCTVSGGSISSYYWSWIRQPPGKGLEWIGYIYSSGSTNYNPSLKSRVTISVDTSKNQFSLKLSSVTAADTAVYYCARESQESPYNNWFDPWGQGTLVTVSS
VL: DIQMTQSPSSVSASVGDRVTITCRASQGISSWLAWYQQKPGKAPKLLIYAASSLQSGVPSRFSGSGSGTDFTLTISSLQPEDFATYYCQQGNSFPRTFGGGTKVEIK
B2: 350.C (antibody, V domains shown)
VH: B1 VH with S30E, S31R, S53G, S54R
VL: B1 VL
B3: 356.C (antibody, V domains shown)
VH: B1 VH with S30E, S31G, Y32R, S53G, N58K
VL: B1 VL
B4: 358.C (antibody, V domains shown)
VH: B1 VH with S31G, Y32R, S53G, S54T
VL: B1 VL
B5: 377.B (antibody, IgG4, V domains shown)
VH: EVQLLESGGGLVQPGGSLRLSCAASGFTFKSYAMSWVRQAPGKGLEWVSAISGSGSYTYYADSVKGRFTISRDNSKNTLYLQMNSLRAEDTAVYYCARGGLYGSGSYLSDFDLWGRGTLVTVSS
VL: EIVLTQSPATLSVSPGERATLSCRASQSVGSNLAWYQQKPGQAPRLLIYGASTRATGIPARFSGSGSGTEFTLTISSLQSEDFAVYYCQQHNAFPYTFGGGTKVEIK
B6: 374.B (antibody, human IgG4 S228P, kappa, V domains shown)
VH: B5 VH with K30S, S31Y, Y32N, A50S, S54T, S56G, Y57S
VL: EIVLTQSPATLSVSPGERATLSCRASQSVGSNLAWYQQKPGQAPRLLIYGASTRATGIPARFSGSGSGTEFTLTISSLQSEDFAVYYCQQHNAFPYTFGGGTKVEIKR
B7: 379.B (antibody, human IgG4 S228P, kappa, V domains shown)
VH: B5 VH with K30S, S31R, A50S, S54T, S56G, Y57S
VL: B6 VL
B8: 356.B (antibody, human IgG4 S228P, kappa, V domains shown)
VH: B1 VH with S30E, S31G, Y32R, S53G, N58K
VL: DIQMTQSPSSVSASVGDRVTITCRASQGISSWLAWYQQKPGKAPKLLIYAASSLQSGVPSRFSGSGSGTDFTLTISSLQPEDFATYYCQQGNSFPRTFGGGTKVEIKR
B9: 358.B (antibody, human IgG4 S228P, kappa, V domains shown)
VH: B1 VH with S31G, Y32R, S53G, S54T
VL: B8 VL

Numbering of substitutions follows the chain as printed. Results are given in words; binding and its absence hold for the method and conditions named. Some binding calls cover weakened binding; strength is not graded here. For part of these data: Tags and fused reporters may be left off the sequences shown.

In the first test the target is T1, Recombinant Mouse 5'-Nucleotidase/CD73 Protein, CF (R&D Systems Cat: 4488-EN), Mouse CD73-His (mouse) (UniProt Q61503).
T1 sequence (looked up): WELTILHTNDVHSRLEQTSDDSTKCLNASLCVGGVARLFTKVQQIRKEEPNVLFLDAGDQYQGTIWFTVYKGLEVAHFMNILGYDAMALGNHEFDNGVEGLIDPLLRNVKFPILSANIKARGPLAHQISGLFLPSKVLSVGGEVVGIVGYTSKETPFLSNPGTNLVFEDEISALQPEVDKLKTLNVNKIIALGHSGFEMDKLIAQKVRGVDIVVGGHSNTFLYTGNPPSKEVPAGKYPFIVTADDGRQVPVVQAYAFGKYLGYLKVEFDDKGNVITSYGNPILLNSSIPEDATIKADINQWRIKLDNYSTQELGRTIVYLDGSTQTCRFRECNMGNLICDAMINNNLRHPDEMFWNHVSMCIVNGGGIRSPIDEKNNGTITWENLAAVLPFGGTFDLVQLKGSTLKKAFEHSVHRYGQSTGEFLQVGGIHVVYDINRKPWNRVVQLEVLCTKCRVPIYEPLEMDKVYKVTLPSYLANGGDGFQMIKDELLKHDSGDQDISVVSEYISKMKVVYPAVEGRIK
Kind of test: ForteBio Octet. For orientation: In BLI a coated tip is dipped into the sample, and binding shifts an interference pattern.
Turning to B1, the binding entry is reported as “binds”.

For B2, the binding entry is listed as “binds”.

On to B3, for which the binding entry is listed as “binds”.

B4: the binding result is recorded as “binds”.

The next test concerns the target human CD73 expressed on the cell surface (human) (UniProt P21589). Kind of test: flow cytometry, biotinylated antibody on CD8+ T cells in human whole blood, streptavidin-APC detection. In general terms: A flow cytometer gives signals particle by particle.
On to B5, for which the binding result is “binds”.

B6: the binding result is given as “binds”.

With B7, the binding entry was “binds”.

Take B8: the binding result is recorded as “binds”.

Regarding B9, the binding entry is “binds”.

Another test has as its target T1, Recombinant Mouse 5'-Nucleotidase/CD73 Protein, CF (R&D Systems Cat: 4488-EN), Mouse CD73-His (mouse). The test is described as follows: restated from the Octet results.
For B1, the binding entry is “binds”.

As for B2, the binding entry is “binds”.

As for B3, the binding entry is “binds”.

For the molecule B4, the binding result is recorded as “binds”.

The next test deals with human CD73 expressed on the cell surface (human) (UniProt P21589). The test is described as follows: flow cytometry, biotinylated antibody on human whole blood, CD8+ T cells.
Consider B5, for which the binding entry is “binds”.

In the case of B6, the binding entry was “binds”.

As for B7, the binding result is reported as “binds”.

Regarding B8, the binding entry is “binds”.

As to B9, the binding entry is listed as “binds”.
